Measurements reported in PubChem BioAssay AID504791 (Drosophila RNAi Screening Center, 2011)

Screen: 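Genes of the fly required for silencing by miRNA, siRNA or endo-siRNA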 (primary screen)
System: Drosophila S2-derived reporter cells
Reagents: long dsRNA against Drosophila genes, about 150-250 ng dsRNA per well (siRNA assay); about 80-120 ng (miRNA assay)
Duration: about 5 days (siRNA assay); about 4 days (miRNA assay)
Conditions: copper sulfate induction of reporters: 25 µM (siRNA assay); 200 mM stated (miRNA assay), 1-2 days before reading
Measurement: 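Per-well ratio of Renilla over firefly light, expressed relative to that plate's average ratio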
Active means: 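a well was a first-pass pick when its plate-scaled ratio rose above 1.5 (siRNA assay) or 1.6 (miRNA assay), or dropped below 0.6; a gene counted only if two separate dsRNAs agreed on retest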
The deposit covers about 23,000 reagents; below is an unselected part of those with a known target gene and a result. In the full data, 199 (0.86%) got an active call. 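Plate-scaled ratios behind the calls are not deposited; printed light signals are raw; many rows marked increased or decreased are still called inactive.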 A number with no mark means an inactive call. Reagents against one gene are numbered here. A plus sign joins genes that one reagent is predicted to hit. Not all columns of the deposit are shown. Not stated in the record: the direction of the score.

gene	reagent no.	stable siRNA reporter change	miRNA reporter change	stable assay Renilla, run 1 (luminescence)
Osi22 (Osiris 22)	1			8733
Mtch	1			7678
CR18275 + CR18166 + CG32817	1			6835
CG13725	1			5526
Syn (Synapsin)	1			6014
CG31205	1			4339
trus (toys are us)	1			6132
Art8 (Arginine methyltransferase 8)	1			7788
CG44433	1			6816
CG44433	2			6751
Jhbp12 (Juvenile hormone binding protein 12)	1			6576
CG30427	1			4335
CG30427	2			36820
CG30427	3			6267
Hn (Henna)	1			6775
CG11241	1			4363
CG11241	2			8698
eIF2Bdelta (eukaryotic translation initiation factor 2B subunit delta)	1			25721
CG6766	1			4259
Chd64	1			7291
Vha68-3 (Vacuolar H[+] ATPase 68kD subunit 3)	1			8565
CG12898	1			7482
CG3739	1			6816
h-cup + Rbp	1			6822
PIG-N (Phosphatidylinositol glycan anchor biosynthesis class N)	1			6730
CG14854	1			7940
CG17777	1			5139
CG7352	1			6748
CG12640	1			4856
l(2)27Cb (retired record)	1			8295
cv-2 (crossveinless 2)	1			5427
cv-2 (crossveinless 2)	2			6519
Or22b (Odorant receptor 22b)	1			6139
CG9752	1			1.30e5
PyK (Pyruvate kinase)	1			6276
Fit2 (Fermitin 2)	1			7302
CG16964	1			7090
CG5810	1			8059
CG5810	2			9686
AIF (Apoptosis inducing factor)	1			11778
Atg12 (Autophagy-related 12)	1			6586
CG6026	1			8445
CG11741	1			6598
Cyp12b2 (Cytochrome P450 12b2)	1			6300
ValRS (Valyl-tRNA synthetase)	1			8374
CG14424	1			5607
CG7565	1			8203
Smyd4-4 (SET and MYND domain containing, class 4, member 4)	1			9037
Khc-73 (Kinesin heavy chain 73)	1			9872
Lrch (Leucine-rich-repeats and calponin homology domain protein)	1			8134
ppk14 (pickpocket 14)	1			7939
PIG-A (Phosphatidylinositol glycan anchor biosynthesis class A)	1			8010
CG32160 (retired record)	1			3507
Mip (Myoinhibiting peptide precursor)	1		reporter ratio lowered past the hit cutoff	8136
CG43163	1			6243
CG43163	2			5955
CG1227	1			8223
CG42557 + CG42558	1			6399
CG42557 + CG42558	2			8559
Coq2 (Coenzyme Q biosynthesis protein 2)	1			7103
Coq2 (Coenzyme Q biosynthesis protein 2)	2			8654
CG11147	1			6956
MrgBP (MRG/MORF4L binding protein)	1			6634
TfIIB (Transcription factor IIB)	1			6050
HINT1 (histidine triad nucleotide binding protein 1)	1			7912
CSN8 (COP9 signalosome subunit 8)	1	reporter ratio lowered past the hit cutoff	reporter ratio lowered past the hit cutoff	27287
CG8252	1			7742
ProtB (Protamine B)	1			8792
Est-Q (Esterase Q)	1			9193
hfw (halfway)	1			6208

Next part; the last 10 above are carried over.
gene	reagent no.	stable siRNA reporter change	miRNA reporter change	stable assay Renilla, run 1 (luminescence)
Coq2 (Coenzyme Q biosynthesis protein 2)	2			8654
CG11147	1			6956
MrgBP (MRG/MORF4L binding protein)	1			6634
TfIIB (Transcription factor IIB)	1			6050
HINT1 (histidine triad nucleotide binding protein 1)	1			7912
CSN8 (COP9 signalosome subunit 8)	1	reporter ratio lowered past the hit cutoff	reporter ratio lowered past the hit cutoff	27287
CG8252	1			7742
ProtB (Protamine B)	1			8792
Est-Q (Esterase Q)	1			9193
hfw (halfway)	1			6208
Pfdn5 (Prefoldin 5)	1			8575
Tbcb (Tubulin-binding cofactor B)	1			10295
CG11786	1			7491
Acox3 (Acyl-CoA oxidase 3)	1			7487
mod(mdg4) + pre-mod(mdg4)-U	1			4339
CG15155	1			7435
ATPsynepsilonL (ATP synthase, epsilon subunit-like)	1			5260
bel (belle)	1	reporter ratio raised past the hit cutoff (active)		7688
CG13806	1			6151
CG34269	1			5443
Scp1 (Sarcoplasmic calcium-binding protein 1)	1			4767
Scp1 (Sarcoplasmic calcium-binding protein 1)	2			4847
Scp1 (Sarcoplasmic calcium-binding protein 1)	3			5620
CG10064	1			5760
CG3184	1			7539
TotM (Turandot M)	1			8685
Taf9 (TBP-associated factor 9)	1			7695
Sbds (SBDS ribosome maturation factor)	1			8051
CG13315	1			6435
Cypl (Cyclophilin-like)	1			6211
Hil (Hillarin)	1			11023
Hil (Hillarin)	2			5367
swa (swallow)	1			7294
CG3823	1			6203
CG30049	1			8358
CG31058 (retired record)	1			4679
CG31058 (retired record)	2			4015
EAChm (Enhancer of Acetyltransferase Chameau)	1			7898
CG15449	1			5774
RpS27 (Ribosomal protein S27)	1			6422
saturn	1			4938
CG7650	1			4887
LysD + LysC (retired record)	1			6312
LysD + LysC (retired record)	2	reporter ratio lowered past the hit cutoff		1964
CG2991	1			9615
eIF5B (eukaryotic translation initiation factor 5B)	1			4463
eIF5B (eukaryotic translation initiation factor 5B)	2		reporter ratio lowered past the hit cutoff	5767
